# In the supplement of paper PMC8728848:
# Some of the results follow.
# B1: GS13814A-bth-462-26-462 (Bacteroides thetaiotaomicron) (protein)
# chain: DDRDNLMVNDQIGLLHSTYTETEIFRGMDTPYQLFVIKSGKGKQETEVSISVDETVLQSYNTDNGTSIQLLPSDCYTILQPALRLNDSDYRKAFDIKWNADRLSDLLSTGKEYGLPIQMSVVQNFISADDERLKTIIVPTIKEPYLQMDVPGMSPVTDFMPTFGDLNERELFVKIRTNYSNDEDISFQIEVDPQLVIDYNTAHGTAYKMLPESSFTVDNKGVILTGMKETFIKIKYHKKGLIPEEGTYLFGDYVLPLRITSVSKYGISPDAASKLYTVKFQPDPIDKKGWSVIDFNNCCTQDGGWYLNMGWGVESLIDNNPGTQWLCRWDVKEPLPYYFVFDMGKEYTLFRFGFANPVAPAAHVWAGTSKAGYVEASIDNENWVKLKDWTSPKIGEPNVNMDVPATQARYIRFVITDTYPTYDGLRVSLGEVYAWGM
# Legend:
# Assay in all cases: glycan array binding signal (z-score within array); higher = stronger binding
# Conditions in all cases: glycan notation: IUPAC condensed, linker removed
# [1] = biological target: Neu5Ac(a2-3)Gal(b1-3)[Fuc(a1-4)]GlcNAc
# Method in brief: (§1)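 Negative Z-scores can be read as non-binding. The Z-score is calculated within each array and then averaged across arrays of one protein sequence at different concentrations or buffers and across linkers. Arrays, 3228 in all, were curated from the Consortium for Functional Glycomics database and kept only where the protein sequence was available.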
# [2] = biological target: Neu5Ac(a2-3)Gal(b1-3)[Fuc(a1-4)]GlcNAc(b1-3)Gal(b1-3)[Fuc(a1-4)]GlcNAc
# Method in brief: as §1
# [3] = biological target: Neu5Ac(a2-3)Gal(b1-3)[Fuc(a1-4)]GlcNAc(b1-3)Gal(b1-4)[Fuc(a1-3)]GlcNAc
# Method in brief: as §1
# [4] = biological target: Neu5Ac(a2-3)Gal(b1-3)[GlcNAc(b1-6)]GalNAc
# Method in brief: as §1
# [5] = biological target: Neu5Ac(a2-3)Gal(b1-3)[Neu5Ac(a2-6)]GalNAc
# Method in brief: as §1
# [6] = biological target: Neu5Ac(a2-3)Gal(b1-3)[Neu5Ac(a2-6)]GlcNAc(b1-3)[Fuc(a1-3)[Gal(b1-4)]GlcNAc(b1-6)]Gal(b1-4)Glc
# Method in brief: as §1
# [7] = biological target: Neu5Ac(a2-3)Gal(b1-3)]Neu5Ac(a2-3)Gal(b1-4)]GlcNAc
# Method in brief: as §1
# Neu5Ac(a2-3)Gal(b1-4)Glc = biological target: Neu5Ac(a2-3)Gal(b1-4)Glc
# Method in brief: as §1
# [8] = biological target: Neu5Ac(a2-3)Gal(b1-4)GlcNAc
# Method in brief: as §1
# [9] = biological target: Neu5Ac(a2-3)Gal(b1-4)GlcNAc(b1-2)Man
# Method in brief: as §1
# [10] = biological target: Neu5Ac(a2-3)Gal(b1-4)GlcNAc(b1-2)Man(a1-3)[GlcNAc(b1-4)][Neu5Ac(a2-3)Gal(b1-4)GlcNAc(b1-2)Man(a1-6)]Man(b1-4)GlcNAc(b1-4)GlcNAc
# Method in brief: as §1
# [11] = biological target: Neu5Ac(a2-3)Gal(b1-4)GlcNAc(b1-2)Man(a1-3)[Neu5Ac(a2-3)Gal(b1-4)GlcNAc(b1-2)Man(a1-6)]Man(b1-4)GlcNAc(b1-4)GlcNAc
# Method in brief: as §1
# [12] = biological target: Neu5Ac(a2-3)Gal(b1-4)GlcNAc(b1-2)Man(a1-3)[Neu5Ac(a2-3)Gal(b1-4)GlcNAc(b1-2)Man(a1-6)]Man(b1-4)GlcNAc(b1-4)[Fuc(a1-6)]GlcNAc
# Method in brief: as §1
# [13] = biological target: Neu5Ac(a2-3)Gal(b1-4)GlcNAc(b1-2)Man(a1-3)[Neu5Ac(a2-6)Gal(b1-4)GlcNAc(b1-2)Man(a1-6)]Man(b1-4)GlcNAc(b1-4)GlcNAc
# Method in brief: as §1
# [14] = biological target: Neu5Ac(a2-3)Gal(b1-4)GlcNAc(b1-2)[Neu5Ac(a2-3)Gal(b1-4)GlcNAc(b1-4)]Man(a1-3)[GlcNAc(b1-4)][Neu5Ac(a2-3)Gal(b1-4)GlcNAc(b1-2)[Neu5Ac(a2-3)Gal(b1-4)GlcNAc(b1-6)]Man(a1-6)]Man(b1-4)GlcNAc(b1-4)GlcNAc
# Method in brief: as §1
# [15] = biological target: Neu5Ac(a2-3)Gal(b1-4)GlcNAc(b1-2)[Neu5Ac(a2-3)Gal(b1-4)GlcNAc(b1-4)]Man(a1-3)[GlcNAc(b1-4)][Neu5Ac(a2-3)Gal(b1-4)GlcNAc(b1-4)Man(a1-6)]Man(b1-4)GlcNAc(b1-4)GlcNAc
# Method in brief: as §1
# [16] = biological target: Neu5Ac(a2-3)Gal(b1-4)GlcNAc(b1-2)[Neu5Ac(a2-3)Gal(b1-4)GlcNAc(b1-6)]Man(a1-6)[Neu5Ac(a2-3)Gal(b1-4)GlcNAc(b1-2)Man(a1-3)]Man(b1-4)GlcNAc(b1-4)GlcNAc
# Method in brief: as §1
# [17] = biological target: Neu5Ac(a2-3)Gal(b1-4)GlcNAc(b1-2)[Neu5Ac(a2-3)Gal(b1-4)GlcNAc(b1-6)]Man(a1-6)[Neu5Ac(a2-3)Gal(b1-4)GlcNAc(b1-2)Man(a1-3)][GlcNAc(b1-4)]Man(b1-4)GlcNAc(b1-4)GlcNAc
# Method in brief: as §1
# [18] = biological target: Neu5Ac(a2-3)Gal(b1-4)GlcNAc(b1-3)Gal
# Method in brief: as §1
# [19] = biological target: Neu5Ac(a2-3)Gal(b1-4)GlcNAc(b1-3)Gal(b1-3)GlcNAc
# Method in brief: as §1
# [20] = biological target: Neu5Ac(a2-3)Gal(b1-4)GlcNAc(b1-3)Gal(b1-4)GlcNAc
# Method in brief: as §1
# [21] = biological target: Neu5Ac(a2-3)Gal(b1-4)GlcNAc(b1-3)Gal(b1-4)GlcNAc(b1-2)Man(a1-3)[Neu5Ac(a2-3)Gal(b1-4)GlcNAc(b1-3)Gal(b1-4)GlcNAc(b1-2)Man(a1-6)]Man(b1-4)GlcNAc(b1-4)GlcNAc
# Method in brief: as §1
# [22] = biological target: Neu5Ac(a2-3)Gal(b1-4)GlcNAc(b1-3)Gal(b1-4)GlcNAc(b1-3)Gal(b1-4)GlcNAc
# Method in brief: as §1
# [23] = biological target: Neu5Ac(a2-3)Gal(b1-4)GlcNAc(b1-3)Gal(b1-4)GlcNAc(b1-3)Gal(b1-4)GlcNAc(b1-2)Man(a1-3)[Neu5Ac(a2-3)Gal(b1-4)GlcNAc(b1-3)Gal(b1-4)GlcNAc(b1-3)Gal(b1-4)GlcNAc(b1-2)Man(a1-6)]GalNAc
# Method in brief: as §1
# [24] = biological target: Neu5Ac(a2-3)Gal(b1-4)GlcNAc(b1-3)Gal(b1-4)GlcNAc(b1-3)GalNAc
# Method in brief: as §1
# [25] = biological target: Neu5Ac(a2-3)Gal(b1-4)GlcNAc(b1-3)Gal(b1-4)GlcNAc(b1-3)[Neu5Ac(a2-3)Gal(b1-4)GlcNAc(b1-3)Gal(b1-4)GlcNAc(b1-6)]GalNAc
# Method in brief: as §1
# [26] = biological target: Neu5Ac(a2-3)Gal(b1-4)GlcNAc(b1-3)Gal(b1-4)GlcNAc(b1-6)[Gal(b1-3)]GalNAc
# Method in brief: as §1
# [27] = biological target: Neu5Ac(a2-3)Gal(b1-4)GlcNAc(b1-3)Gal(b1-4)[Fuc(a1-3)]GlcNAc
# Method in brief: as §1
# [28] = biological target: Neu5Ac(a2-3)Gal(b1-4)GlcNAc(b1-3)GalNAc
# Method in brief: as §1
# [29] = biological target: Neu5Ac(a2-3)Gal(b1-4)GlcNAc(b1-3)[Neu5Ac(a2-3)Gal(b1-4)GlcNAc(b1-6)]GalNAc
# Method in brief: as §1
binder,measurement,setting,value
B1,glycan array binding signal (z-score),[1],-0.182
same,glycan array binding signal (z-score),[2],-0.515
same,glycan array binding signal (z-score),[3],0.24
same,glycan array binding signal (z-score),[4],-0.468
same,glycan array binding signal (z-score),[5],-1.15
same,glycan array binding signal (z-score),[6],-1
same,glycan array binding signal (z-score),[7],2.12
same,glycan array binding signal (z-score),Neu5Ac(a2-3)Gal(b1-4)Glc,2.85
same,glycan array binding signal (z-score),[8],0.499
same,glycan array binding signal (z-score),[9],-0.718
same,glycan array binding signal (z-score),[10],-0.625
same,glycan array binding signal (z-score),[11],-0.73
same,glycan array binding signal (z-score),[12],-0.921
same,glycan array binding signal (z-score),[13],0.133
same,glycan array binding signal (z-score),[14],0.444
same,glycan array binding signal (z-score),[15],0.887
same,glycan array binding signal (z-score),[16],0.177
same,glycan array binding signal (z-score),[17],-0.418
same,glycan array binding signal (z-score),[18],-0.359
same,glycan array binding signal (z-score),[19],0.098
same,glycan array binding signal (z-score),[20],1.08
same,glycan array binding signal (z-score),[21],0.327
same,glycan array binding signal (z-score),[22],0.458
same,glycan array binding signal (z-score),[23],0.012
same,glycan array binding signal (z-score),[24],-0.555
same,glycan array binding signal (z-score),[25],0.665
same,glycan array binding signal (z-score),[26],0.168
same,glycan array binding signal (z-score),[27],-1.35
same,glycan array binding signal (z-score),[28],-0.818
same,glycan array binding signal (z-score),[29],-0.235

# Copied from the entries so far for reference:
binder,measurement,setting,value
B1,glycan array binding signal (z-score),[21],0.327
same,glycan array binding signal (z-score),[22],0.458
same,glycan array binding signal (z-score),[23],0.012
same,glycan array binding signal (z-score),[24],-0.555
same,glycan array binding signal (z-score),[25],0.665
